Laboratory results reported in the supplement of paper PMC10849652.
Some of the results follow.

Protein sequences, listed by entry. Tags and fused reporters are not part of them. Lines headed by an entry give the natural chain unless they say otherwise; changes in a name come on top.
UniProt Q6IAA8, whole entry, looked up: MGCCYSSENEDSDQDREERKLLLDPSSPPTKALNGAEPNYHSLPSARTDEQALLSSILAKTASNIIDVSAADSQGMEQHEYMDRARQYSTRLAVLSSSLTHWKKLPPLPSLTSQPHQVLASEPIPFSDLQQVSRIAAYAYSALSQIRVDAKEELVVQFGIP
UniProt P50053: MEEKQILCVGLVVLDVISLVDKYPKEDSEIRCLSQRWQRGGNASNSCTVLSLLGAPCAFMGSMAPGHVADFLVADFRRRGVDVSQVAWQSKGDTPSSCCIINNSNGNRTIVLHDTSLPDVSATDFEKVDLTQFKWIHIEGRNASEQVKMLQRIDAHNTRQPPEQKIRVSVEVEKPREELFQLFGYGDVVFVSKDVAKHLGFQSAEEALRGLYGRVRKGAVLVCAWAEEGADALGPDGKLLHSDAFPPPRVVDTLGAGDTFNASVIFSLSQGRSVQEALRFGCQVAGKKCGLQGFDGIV
UniProt O95239: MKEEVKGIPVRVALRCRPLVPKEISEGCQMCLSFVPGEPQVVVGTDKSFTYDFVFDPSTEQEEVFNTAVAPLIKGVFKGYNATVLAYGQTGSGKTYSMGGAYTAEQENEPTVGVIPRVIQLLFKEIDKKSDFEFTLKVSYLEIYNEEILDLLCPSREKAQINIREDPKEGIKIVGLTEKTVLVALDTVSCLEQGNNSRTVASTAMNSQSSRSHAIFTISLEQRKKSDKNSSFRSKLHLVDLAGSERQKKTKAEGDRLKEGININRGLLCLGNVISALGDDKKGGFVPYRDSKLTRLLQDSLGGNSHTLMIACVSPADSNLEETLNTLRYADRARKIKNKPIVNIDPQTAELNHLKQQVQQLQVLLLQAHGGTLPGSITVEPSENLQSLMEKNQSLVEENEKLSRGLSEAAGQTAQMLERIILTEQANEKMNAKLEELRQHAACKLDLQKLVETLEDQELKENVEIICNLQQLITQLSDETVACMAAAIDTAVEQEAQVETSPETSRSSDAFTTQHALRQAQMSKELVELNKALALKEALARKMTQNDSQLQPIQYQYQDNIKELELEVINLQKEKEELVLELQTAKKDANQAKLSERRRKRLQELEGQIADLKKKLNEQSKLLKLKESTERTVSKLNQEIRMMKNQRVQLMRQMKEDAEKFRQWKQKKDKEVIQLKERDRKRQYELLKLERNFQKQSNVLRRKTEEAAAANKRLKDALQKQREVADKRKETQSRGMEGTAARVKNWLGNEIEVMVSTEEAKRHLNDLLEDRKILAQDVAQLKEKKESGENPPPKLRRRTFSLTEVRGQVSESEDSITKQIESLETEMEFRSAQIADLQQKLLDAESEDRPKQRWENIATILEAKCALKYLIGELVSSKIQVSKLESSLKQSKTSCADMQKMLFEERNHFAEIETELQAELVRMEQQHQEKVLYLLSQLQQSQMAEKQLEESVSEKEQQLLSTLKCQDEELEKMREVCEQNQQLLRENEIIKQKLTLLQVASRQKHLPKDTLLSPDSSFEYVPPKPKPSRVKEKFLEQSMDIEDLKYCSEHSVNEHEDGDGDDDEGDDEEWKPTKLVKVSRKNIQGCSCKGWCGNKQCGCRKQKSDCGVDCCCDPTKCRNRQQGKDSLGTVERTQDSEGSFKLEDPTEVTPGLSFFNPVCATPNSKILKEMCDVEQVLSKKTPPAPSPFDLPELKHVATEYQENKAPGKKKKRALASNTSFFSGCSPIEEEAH
UniProt Q9UN81: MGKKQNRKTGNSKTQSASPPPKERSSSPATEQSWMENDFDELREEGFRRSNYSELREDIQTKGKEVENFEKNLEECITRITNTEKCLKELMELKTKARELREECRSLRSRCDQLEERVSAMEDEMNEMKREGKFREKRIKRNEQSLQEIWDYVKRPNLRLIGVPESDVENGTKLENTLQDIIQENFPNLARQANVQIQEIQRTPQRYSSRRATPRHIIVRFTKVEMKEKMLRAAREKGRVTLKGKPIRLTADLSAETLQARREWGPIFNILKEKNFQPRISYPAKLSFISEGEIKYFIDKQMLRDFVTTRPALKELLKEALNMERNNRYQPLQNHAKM
UniProt Q53H82: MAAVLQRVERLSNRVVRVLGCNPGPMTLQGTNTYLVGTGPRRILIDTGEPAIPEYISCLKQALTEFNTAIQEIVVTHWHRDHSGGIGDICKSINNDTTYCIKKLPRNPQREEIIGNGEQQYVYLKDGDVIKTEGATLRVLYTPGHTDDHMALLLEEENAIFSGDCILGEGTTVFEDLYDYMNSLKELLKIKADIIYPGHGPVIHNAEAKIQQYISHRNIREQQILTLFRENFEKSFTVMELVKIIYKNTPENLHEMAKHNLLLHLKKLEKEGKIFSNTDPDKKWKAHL
UniProt Q9NS87: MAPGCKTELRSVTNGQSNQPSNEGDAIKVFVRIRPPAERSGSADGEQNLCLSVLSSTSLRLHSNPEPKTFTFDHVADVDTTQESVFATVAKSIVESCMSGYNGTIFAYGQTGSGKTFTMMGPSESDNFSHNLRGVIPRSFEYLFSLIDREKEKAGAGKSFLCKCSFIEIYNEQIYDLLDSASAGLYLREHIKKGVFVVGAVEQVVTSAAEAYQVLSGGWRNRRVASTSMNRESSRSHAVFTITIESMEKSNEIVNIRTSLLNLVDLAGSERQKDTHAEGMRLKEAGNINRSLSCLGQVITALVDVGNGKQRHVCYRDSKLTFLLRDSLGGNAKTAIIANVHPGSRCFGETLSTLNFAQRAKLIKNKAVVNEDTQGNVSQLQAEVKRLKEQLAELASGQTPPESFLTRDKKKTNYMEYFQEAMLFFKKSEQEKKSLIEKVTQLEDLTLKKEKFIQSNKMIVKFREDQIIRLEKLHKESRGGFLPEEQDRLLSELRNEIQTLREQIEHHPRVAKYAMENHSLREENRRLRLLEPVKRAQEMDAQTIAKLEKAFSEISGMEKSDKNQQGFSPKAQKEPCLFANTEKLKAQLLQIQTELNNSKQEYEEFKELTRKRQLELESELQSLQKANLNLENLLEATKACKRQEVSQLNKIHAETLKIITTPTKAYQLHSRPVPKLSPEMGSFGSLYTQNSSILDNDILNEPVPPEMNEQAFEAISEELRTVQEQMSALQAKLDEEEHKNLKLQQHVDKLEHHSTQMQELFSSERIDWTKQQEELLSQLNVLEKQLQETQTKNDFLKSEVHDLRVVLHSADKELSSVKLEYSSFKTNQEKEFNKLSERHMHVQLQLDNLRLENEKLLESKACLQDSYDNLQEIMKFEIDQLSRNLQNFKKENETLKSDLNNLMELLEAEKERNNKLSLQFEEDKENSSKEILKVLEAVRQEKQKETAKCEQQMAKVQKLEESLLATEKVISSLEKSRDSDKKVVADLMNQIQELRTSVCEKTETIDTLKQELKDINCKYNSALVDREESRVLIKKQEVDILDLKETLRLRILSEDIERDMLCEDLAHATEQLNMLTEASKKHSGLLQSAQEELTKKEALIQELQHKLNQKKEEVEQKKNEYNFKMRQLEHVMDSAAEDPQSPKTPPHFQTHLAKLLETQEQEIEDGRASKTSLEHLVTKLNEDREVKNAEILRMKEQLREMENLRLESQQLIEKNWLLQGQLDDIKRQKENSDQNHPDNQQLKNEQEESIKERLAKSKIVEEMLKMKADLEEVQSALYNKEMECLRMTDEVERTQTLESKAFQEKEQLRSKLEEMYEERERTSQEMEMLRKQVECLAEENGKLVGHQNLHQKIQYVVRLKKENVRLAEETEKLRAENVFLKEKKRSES
UniProt Q9Y496, whole entry, looked up: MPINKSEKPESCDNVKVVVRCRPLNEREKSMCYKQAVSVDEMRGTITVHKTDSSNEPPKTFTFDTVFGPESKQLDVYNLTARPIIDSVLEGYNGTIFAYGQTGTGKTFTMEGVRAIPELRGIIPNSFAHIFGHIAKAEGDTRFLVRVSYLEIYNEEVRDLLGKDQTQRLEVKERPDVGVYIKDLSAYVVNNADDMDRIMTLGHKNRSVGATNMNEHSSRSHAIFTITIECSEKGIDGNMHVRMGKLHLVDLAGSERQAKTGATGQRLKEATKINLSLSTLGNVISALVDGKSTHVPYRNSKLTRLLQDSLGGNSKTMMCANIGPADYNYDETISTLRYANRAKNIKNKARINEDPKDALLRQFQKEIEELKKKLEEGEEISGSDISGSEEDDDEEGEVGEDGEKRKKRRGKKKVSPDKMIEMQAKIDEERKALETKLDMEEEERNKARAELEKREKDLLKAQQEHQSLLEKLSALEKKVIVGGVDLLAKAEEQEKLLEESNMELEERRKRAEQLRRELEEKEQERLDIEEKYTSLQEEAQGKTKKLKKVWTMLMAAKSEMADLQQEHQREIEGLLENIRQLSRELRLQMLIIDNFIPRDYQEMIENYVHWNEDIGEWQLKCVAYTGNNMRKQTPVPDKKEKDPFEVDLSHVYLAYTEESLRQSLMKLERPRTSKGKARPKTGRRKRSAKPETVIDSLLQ
UniProt Q96EK9: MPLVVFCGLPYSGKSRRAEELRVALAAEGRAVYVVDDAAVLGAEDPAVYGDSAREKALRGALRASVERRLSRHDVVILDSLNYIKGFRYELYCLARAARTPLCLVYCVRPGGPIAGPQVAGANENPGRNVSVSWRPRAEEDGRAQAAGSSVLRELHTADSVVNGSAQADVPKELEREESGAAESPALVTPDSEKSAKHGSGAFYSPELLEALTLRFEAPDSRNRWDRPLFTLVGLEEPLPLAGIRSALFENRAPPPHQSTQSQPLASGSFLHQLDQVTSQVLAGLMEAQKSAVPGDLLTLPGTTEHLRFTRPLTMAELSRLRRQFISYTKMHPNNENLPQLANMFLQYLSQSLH
UniProt Q9Y2Q5, whole entry, looked up: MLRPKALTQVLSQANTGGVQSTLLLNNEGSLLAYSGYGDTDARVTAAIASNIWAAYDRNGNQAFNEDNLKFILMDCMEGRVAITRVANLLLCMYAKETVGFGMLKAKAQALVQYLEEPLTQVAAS
UniProt P33176: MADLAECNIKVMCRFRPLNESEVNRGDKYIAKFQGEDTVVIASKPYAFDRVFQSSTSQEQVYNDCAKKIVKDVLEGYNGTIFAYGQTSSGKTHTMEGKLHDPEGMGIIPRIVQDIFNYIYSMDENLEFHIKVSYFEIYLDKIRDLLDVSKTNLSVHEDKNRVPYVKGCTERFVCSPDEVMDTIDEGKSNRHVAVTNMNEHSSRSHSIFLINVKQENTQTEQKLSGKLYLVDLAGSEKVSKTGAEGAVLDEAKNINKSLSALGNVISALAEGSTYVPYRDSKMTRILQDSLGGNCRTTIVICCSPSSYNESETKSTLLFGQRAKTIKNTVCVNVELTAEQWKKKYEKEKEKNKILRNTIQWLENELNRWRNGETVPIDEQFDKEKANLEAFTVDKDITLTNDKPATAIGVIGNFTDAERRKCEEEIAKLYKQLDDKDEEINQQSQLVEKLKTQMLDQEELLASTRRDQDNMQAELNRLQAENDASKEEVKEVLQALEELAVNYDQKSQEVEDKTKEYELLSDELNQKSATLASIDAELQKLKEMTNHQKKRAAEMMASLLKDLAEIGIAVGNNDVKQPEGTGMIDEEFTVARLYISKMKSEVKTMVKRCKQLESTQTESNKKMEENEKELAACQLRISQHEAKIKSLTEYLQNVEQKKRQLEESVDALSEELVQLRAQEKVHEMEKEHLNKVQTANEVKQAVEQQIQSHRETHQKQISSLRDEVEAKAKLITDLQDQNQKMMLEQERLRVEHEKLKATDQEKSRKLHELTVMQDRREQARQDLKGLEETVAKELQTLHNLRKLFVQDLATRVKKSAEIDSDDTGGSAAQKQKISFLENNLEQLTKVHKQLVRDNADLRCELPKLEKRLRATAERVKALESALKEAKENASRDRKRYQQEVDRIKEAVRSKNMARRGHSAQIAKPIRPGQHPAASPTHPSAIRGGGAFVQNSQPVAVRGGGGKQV
UniProt O00505, whole entry, looked up: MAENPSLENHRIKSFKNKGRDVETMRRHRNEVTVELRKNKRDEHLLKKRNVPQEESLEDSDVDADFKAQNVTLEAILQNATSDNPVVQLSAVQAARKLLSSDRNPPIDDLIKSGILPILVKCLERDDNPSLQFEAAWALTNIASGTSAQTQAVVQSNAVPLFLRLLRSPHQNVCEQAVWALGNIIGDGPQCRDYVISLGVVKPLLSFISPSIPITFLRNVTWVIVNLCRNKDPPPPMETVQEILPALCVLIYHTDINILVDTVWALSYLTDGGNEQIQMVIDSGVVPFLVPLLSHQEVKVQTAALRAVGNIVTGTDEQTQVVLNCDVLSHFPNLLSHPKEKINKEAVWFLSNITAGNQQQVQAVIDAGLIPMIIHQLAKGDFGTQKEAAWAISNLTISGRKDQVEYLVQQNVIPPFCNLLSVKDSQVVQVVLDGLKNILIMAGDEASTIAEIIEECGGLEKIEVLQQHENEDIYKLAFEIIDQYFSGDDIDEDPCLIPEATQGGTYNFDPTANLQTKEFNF
UniProt Q9BQD3: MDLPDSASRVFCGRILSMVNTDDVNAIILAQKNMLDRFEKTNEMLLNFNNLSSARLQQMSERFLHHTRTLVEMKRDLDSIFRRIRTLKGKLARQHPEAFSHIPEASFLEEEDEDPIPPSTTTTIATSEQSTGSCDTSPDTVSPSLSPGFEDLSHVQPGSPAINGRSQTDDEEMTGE

compound: Cc1ccc(NC(=O)c2ccc(CN3CC[C@H](N(C)C)C3)c(C(F)(F)F)c2)cc1Nc1nccc(-c2cncnc2)n1 [bafetinib]; assay: log2 fold change, soluble protein after heating vs DMSO (PISA); higher = thermal stabilisation; K562 lysate, 10 uM; active = over 0.2 and 3.5 SD of the protein, either way, in both replicates (recomputed)
Method in brief: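 Thermal stability, expressed as log-two fold change relative to solvent controls, is given from duplicates. Crude K562 extract in PBS pH 7.4 with 1 mM MgCl2, at 1 mg/mL protein, was treated with 10 μM compound for 30 min and heated in aliquots for 3 min across 48°C-58°C. After pooling, adjustment to 0.5% NP-40 at 4°C and centrifugation at 21,000xg for 90 min, supernatant protein was measured by TMTpro 16plex LC-MS/MS with channel sums equalised.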

log2 fold change, inactive:
LAMTOR1 (UniProt Q6IAA8) -0.048
KHK isoform 2 (UniProt P50053) 0.001
KNL1 (UniProt Q8NG31) -0.017
LAMB1 (UniProt P07942) -0.016
KIF4A (UniProt O95239) -0.066
KHDRBS1 (UniProt Q07666) 0.039
L1RE1 (UniProt Q9UN81) 0.021
LARP7 isoform 3 (UniProt Q4G0J3) -0.01
KLC4 isoform 3 (UniProt Q9NSK0) -0.018
L2HGDH (UniProt Q9H9P8) -0.06
KSR1 (UniProt Q8IVT5) -0.038
KIAA0930 isoform 2 (UniProt Q6ICG6) -0.051
LACTB2 (UniProt Q53H82) 0.013
LANCL1 (UniProt O43813) -0.014
LAMP2 (UniProt P13473) -0.005
KHSRP (UniProt Q92945) 0.021
KDM8 isoform 3 (UniProt Q8N371) -0.059
KLHL18 (UniProt O94889) -0.024
KPTN (UniProt Q9Y664) -0.08
KIF15 (UniProt Q9NS87) -0.025
KYAT3 (UniProt Q6YP21) 0
KIF3A (UniProt Q9Y496) -0.027
KTI12 (UniProt Q96EK9) -0.009
LAMTOR2 (UniProt Q9Y2Q5) -0.12
KIF5B (UniProt P33176) 0.015
KIF23 isoform 2 (UniProt Q02241) -0.011
KPNA1 (UniProt P52294) -0.023
KPNA3 (UniProt O00505) 0.037
KPNA2 (UniProt P52292) -0.028
LAMTOR5 (UniProt O43504) 0.029
KNOP1 (UniProt Q1ED39) -0.06
KIF5A (UniProt Q12840) -0.007
KDM5B isoform 2 (UniProt Q9UGL1) -0.013
KIAA1191 (UniProt Q96A73) -0.013
KLC2 (UniProt Q9H0B6) -0.043
KIF13A isoform 4 (UniProt Q9H1H9) -0.016
KNSTRN (UniProt Q9Y448) 0.024
KRBA1 (UniProt A5PL33) -0.043
KXD1 (UniProt Q9BQD3) -0.079

Two records picked at random from those above, as already listed:
log2 fold change, inactive:
KDM8 isoform 3 (UniProt Q8N371) -0.059
KDM5B isoform 2 (UniProt Q9UGL1) -0.013
